Consider 1 substance from US8765669B2 (Glytech, Inc., priority 2008, dated 2014).

The series can be described thus: general procedure: Fmoc solid-phase peptide synthesis; Rink-Amido-PEGA resin; HCTU.HOBT/NMP, DIPEA (first residue: MSNT, N-methylimidazole). The settings on record: whole synthesis, scale 100 μmol.

“30-residue peptide wherein 26Lys of BIM51077 was substituted with Cys” had an isolated mass of 12 mg.
